Data reported in paper PMC2996326, “LaeA Control of Velvet Family Regulatory Proteins for Light-Dependent Development and Fungal Cell-Type Specificity” (PLoS Genetics, 2010).
These are yes or no findings as the source states them, for the method shown. For some assays here: In cells and extracts the contact can be indirect. Some entries that bind do so weakly or less than the wild type. For some assays here: Sequences can lack the tags named with a protein.

Chains of the proteins cited; added tags and fusions are not shown.
UniProt C8VTS4: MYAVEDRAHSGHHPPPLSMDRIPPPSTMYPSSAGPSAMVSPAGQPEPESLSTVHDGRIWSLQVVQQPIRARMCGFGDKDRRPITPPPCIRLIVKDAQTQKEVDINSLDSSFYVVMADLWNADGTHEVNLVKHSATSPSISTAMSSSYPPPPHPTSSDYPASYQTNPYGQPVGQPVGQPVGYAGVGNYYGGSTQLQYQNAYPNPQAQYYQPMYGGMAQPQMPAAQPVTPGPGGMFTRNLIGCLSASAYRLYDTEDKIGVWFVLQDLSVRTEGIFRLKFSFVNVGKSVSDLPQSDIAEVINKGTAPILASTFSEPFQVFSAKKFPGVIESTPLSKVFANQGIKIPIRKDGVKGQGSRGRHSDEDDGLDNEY

Columns and labels:
[1] = molecular target: C-EYFP::VelB (Aspergillus nidulans) (UniProt C8VTS4); assay: split reporter; split-EYFP (BIFC) in living A. nidulans hyphae, fluorescence microscopy; nuclei marked by H2A::mRFP or DAPI; wild type and laeAΔ strains, light or dark
[2] = molecular target: T1, N-EYFP::VeA (Aspergillus nidulans) (UniProt C8VTV4); assay: as above
T1 sequence: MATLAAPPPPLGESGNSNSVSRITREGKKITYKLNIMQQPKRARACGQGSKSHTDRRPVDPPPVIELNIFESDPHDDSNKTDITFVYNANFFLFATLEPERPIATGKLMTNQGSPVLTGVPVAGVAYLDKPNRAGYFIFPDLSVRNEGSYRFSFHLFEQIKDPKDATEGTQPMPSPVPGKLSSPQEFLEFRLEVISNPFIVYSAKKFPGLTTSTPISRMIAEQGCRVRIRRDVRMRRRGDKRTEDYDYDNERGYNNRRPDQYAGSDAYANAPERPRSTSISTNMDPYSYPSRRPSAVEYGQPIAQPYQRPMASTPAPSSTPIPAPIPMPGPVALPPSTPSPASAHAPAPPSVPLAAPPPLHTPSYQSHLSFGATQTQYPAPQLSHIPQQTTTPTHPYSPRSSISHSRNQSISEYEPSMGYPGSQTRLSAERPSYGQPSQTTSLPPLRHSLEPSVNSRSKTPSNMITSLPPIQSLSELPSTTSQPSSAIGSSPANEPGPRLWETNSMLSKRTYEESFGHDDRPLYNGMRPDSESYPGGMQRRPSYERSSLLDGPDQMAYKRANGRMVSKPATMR

[3] = molecular target: T2, N-EYFP::VosA (Aspergillus nidulans) (UniProt Q5BBX1); assay: as above
T2 sequence: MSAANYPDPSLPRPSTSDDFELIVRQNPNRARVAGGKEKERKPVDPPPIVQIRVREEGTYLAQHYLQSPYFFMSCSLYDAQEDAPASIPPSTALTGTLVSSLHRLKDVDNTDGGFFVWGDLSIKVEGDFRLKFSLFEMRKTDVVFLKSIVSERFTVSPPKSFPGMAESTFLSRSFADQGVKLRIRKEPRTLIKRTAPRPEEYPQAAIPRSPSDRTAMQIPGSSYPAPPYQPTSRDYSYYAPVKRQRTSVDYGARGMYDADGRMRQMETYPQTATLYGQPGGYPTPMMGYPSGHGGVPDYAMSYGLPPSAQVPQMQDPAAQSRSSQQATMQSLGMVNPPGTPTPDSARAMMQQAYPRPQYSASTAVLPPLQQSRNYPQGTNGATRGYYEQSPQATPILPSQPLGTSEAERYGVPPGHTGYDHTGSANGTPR

[4] = molecular target: T3, VosA (yeast two hybrid screen and GST pull-down, unpublished data) (Aspergillus nidulans) (UniProt Q5BBX1); assay: two-hybrid; yeast two hybrid screen; unpublished data (Ni et al)
T3 sequence: T2 sequence

[5] = molecular target: T3, VosA (yeast two hybrid screen and GST pull-down, unpublished data) (Aspergillus nidulans); assay: pull-down; GST pull-down assay following the two hybrid screen; unpublished data (Ni et al)

In the case of “C-EYFP::VelB (from UniProt C8VTS4 1-369)”, the binding [1] is reported as “binds”, the binding [2] is reported as “binds” and the binding [3] is reported as “binds”.

B1: VelC (protein, UniProt Q5BBM1 1-524)
chain: MTTHVGPQTTLLHQTGQISALIAGEAVQTCEASSCQMSGTPFQQWTYVTEGRYTNARTHPSDEDRRRQTTVSNPRYLAQEPPRFLLPTAQNNAPTMSQSATYSTLPVQGFPEQNRVLDNRSDPKYGPLPATTGSLAQYSIQRPSTSRNMENAGSSSSYYDAPSCSRGSVGSIGRMNDLDSQYSGSTTAFPSPVHSDSSPIYPAIAPISGYQQQLPIHQRHTTSSMPSGFENLLHHHSTSPSPPPRCASSSSRYRLFIRQQPLAARACGAGDRDRRPVDPPPIIQLLLTEFNPNSEKDRSILQDPRFTVGCLLYPVRNPSYLPGSGSGAGSSDTNTNSNDKSRHESMSSYSQLGINLEDSHATGQSTPLLSGKAFVSPFFVDEEPDPNTAPAHPSSTDDSTYDASPRTVTHRFRNRPLPKPPACFFIFSDLSVRTAGLYRLQFRLMNWGSIEDTGQSMPILAEVWSEPFRVCAAKDFPGMRDSSLLTLRLKELGFVELKTRGQGMGKGRRVGIGSSKVSSRARVE
B1 was tested, and the binding [4] was “binds” and the binding [5] was “binds”.
